# The list shows a part of the results. Single values are uncertain, as repeats are few or missing.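 The apoptosis fraction was the count of cleaved-PARP antibody-stained nuclei relative to all DNA-stained nuclei, imaged in 1,536-well plates. Screening doses were set so most cells survived, and baseline and induced cleaved-PARP levels vary greatly across cell lines.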
# What was measured:
# Assay in all cases: cleaved PARP positive nuclei fraction relative to DMSO control; melanoma cells; higher = more apoptosis
# Conditions in all cases: library dose: low library concentration; 72 h
# MZ2-MEL = tested on: MZ2-MEL
# MeWo = tested on: MeWo
# RPMI7951 = tested on: RPMI7951
# RVH-421 = tested on: RVH-421
# SkMel28 = tested on: SkMel28
# SkMel2 = tested on: SkMel2
# SkMel30 = tested on: SkMel30
# SkMel5 = tested on: SkMel5
# UACC257 = tested on: UACC257
# UACC62 = tested on: UACC62
SMILES,cleaved PARP positive nuclei fraction (MZ2-MEL) [%],cleaved PARP positive nuclei fraction (MeWo) [%],cleaved PARP positive nuclei fraction (RPMI7951) [%],cleaved PARP positive nuclei fraction (RVH-421) [%],cleaved PARP positive nuclei fraction (SkMel28) [%],cleaved PARP positive nuclei fraction (SkMel2) [%],cleaved PARP positive nuclei fraction (SkMel30) [%],cleaved PARP positive nuclei fraction (SkMel5) [%],cleaved PARP positive nuclei fraction (UACC257) [%],cleaved PARP positive nuclei fraction (UACC62) [%]
"OCc1c[nH]c2ccccc12 [Indole-3-carbinol] + CCCCCCCCCCCC1=C(O)C(=O)C=C(O)C1=O [Embelin] (first compound 0.8 µM, partner dose 1.2 µM)",128,97.2,39.7,193,65.7,131,159,223,128,55.5
"CC(C)(C)c1cnc(CSc2cnc(NC(=O)C3CCNCC3)s2)o1 + OCCn1cc(-c2cnc3nnn(Cc4ccc5ncccc5c4)c3n2)cn1 [PF04217903] (first compound 0.01 µM, partner dose 1 µM)",237,111,108,77.9,143,127,62.4,133,65.5,26.4
"C=CCNC1=C2C[C@@H](C)C[C@H](OC)[C@H](O)[C@@H](C)/C=C(\C)[C@H](OC(N)=O)[C@@H](OC)/C=C\C=C(/C)C(=O)NC(=CC1=O)C2=O [Tanespimycin] + NCC(=O)Nc1ccc(-n2nc(C(F)(F)F)cc2-c2ccc3c(ccc4ccccc43)c2)cc1 [OSU03012] (first compound 0.002 µM, partner dose 1 µM)",102,181,115,46.4,144,264,123,392,106,74.9
"CC1(C)NC(=O)N(c2ccc([N+](=O)[O-])c(C(F)(F)F)c2)C1=O [nilutamide] + Cc1ccc(NC(=O)c2cccc(N(C)C)c2)cc1NC(=O)c1ccc(O)cc1 [ZM336372] (first compound 1 µM, partner dose 2 µM)",91.7,88.6,273,48.1,121,28.7,115,150,76.6,22.2
"OCc1c[nH]c2ccccc12 [Indole-3-carbinol] + CN(C)S(=O)(=O)c1ccc2c(c1)/C(=C/c1cc3c([nH]1)CCCC3)C(=O)N2 [SU6656] (first compound 0.8 µM, partner dose 0.4 µM)",49.8,105,185,50.5,77.1,47.1,67,78.1,163,193
"COc1cc(Nc2ncc(F)c(Nc3ccc4c(n3)NC(=O)C(C)(C)O4)n2)cc(OC)c1OC [Tamatinib] + C[C@@H]1CCN(C(=O)CC#N)C[C@@H]1N(C)c1ncnc2[nH]ccc12 [CP690550] (first compound 0.4 µM, partner dose 1 µM)",115,121,98.2,92.1,201,133,151,94.8,113,115
"CC(=O)c1c(C)c2cnc(Nc3ccc(N4CCNCC4)cn3)nc2n(C2CCCC2)c1=O [palbociclib] + CCCCCCCCCCCC1=C(O)C(=O)C=C(O)C1=O [Embelin] (first compound 0.04 µM, partner dose 1.2 µM)",156,101,47.5,153,442,30.2,112,119,64.9,82.6
"COc1cc(Nc2ncc(F)c(Nc3ccc4c(n3)NC(=O)C(C)(C)O4)n2)cc(OC)c1OC [Tamatinib] + C=CCn1c(=O)c2cnc(Nc3ccc(N4CCN(C)CC4)cc3)nc2n1-c1cccc(C(C)(C)O)n1 [MK1775] (first compound 0.4 µM, partner dose 0.02 µM)",71.5,183,174,111,73.2,148,135,109,131,340
"OCCn1cc(-c2cnc3nnn(Cc4ccc5ncccc5c4)c3n2)cn1 + C[C@@H]1CCN(C(=O)CC#N)C[C@@H]1N(C)c1ncnc2[nH]ccc12 [CP690550] (first compound 1 µM, partner dose 1 µM)",102,121,35.9,85.5,87.8,168,58.3,113,134,170
"Clc1ccc(Nc2nnc(Cc3ccncc3)c3ccccc23)cc1 [vatalanib] + CC1(C)NC(=O)N(c2ccc([N+](=O)[O-])c(C(F)(F)F)c2)C1=O [nilutamide] (first compound 2 µM, partner dose 1 µM)",167,215,112,57.6,646,47.3,62.2,91,91.1,169
"OCc1c[nH]c2ccccc12 [Indole-3-carbinol] + CN(NC(=O)CC(=O)NN(C)C(=S)c1ccccc1)C(=S)c1ccccc1 [STA4783] (first compound 0.8 µM, partner dose 0.006 µM)",27.8,27.8,59.6,161,60.8,57.6,92.7,121,153,48.3
"C=CCNC1=C2C[C@@H](C)C[C@H](OC)[C@H](O)[C@@H](C)/C=C(\C)[C@H](OC(N)=O)[C@@H](OC)/C=C\C=C(/C)C(=O)NC(=CC1=O)C2=O [Tanespimycin] + CO[C@@H]1[C@H](N(C)C(=O)c2ccccc2)C[C@H]2O[C@]1(C)n1c3ccccc3c3c4c(c5c6ccccc6n2c5c31)C(=O)NC4 [Midostaurin] (first compound 0.002 µM, partner dose 0.08 µM)",114,264,93.9,66.6,56.1,155,69.8,79.6,30.9,75.8
"CC(C)(C)c1cnc(CSc2cnc(NC(=O)C3CCNCC3)s2)o1 + O=C(Nc1cccc(Cl)c1)Nc1ncc(CCNc2ncnc3ccsc23)s1 [SNS314] (first compound 0.01 µM, partner dose 0.0008 µM)",252,135,75.3,62,48.4,121,145,64.6,99,188
"C=CCNC1=C2C[C@@H](C)C[C@H](OC)[C@H](O)[C@@H](C)/C=C(\C)[C@H](OC(N)=O)[C@@H](OC)/C=C\C=C(/C)C(=O)NC(=CC1=O)C2=O [Tanespimycin] + O=C(O)C(=O)Nc1sc2c(c1C(=O)O)CCNC2 [TCS401] (first compound 0.002 µM, partner dose 1.66667 µM)",216,65.8,78.8,68.7,124,124,134,75.5,191,42.4
"C=CCNC1=C2C[C@@H](C)C[C@H](OC)[C@H](O)[C@@H](C)/C=C(\C)[C@H](OC(N)=O)[C@@H](OC)/C=C\C=C(/C)C(=O)NC(=CC1=O)C2=O [Tanespimycin] + C=CCn1c(=O)c2cnc(Nc3ccc(N4CCN(C)CC4)cc3)nc2n1-c1cccc(C(C)(C)O)n1 [MK1775] (first compound 0.002 µM, partner dose 0.02 µM)",75.7,92.8,151,90.6,96.7,112,149,124,196,167
"CO[C@@H]1[C@H](N(C)C(=O)c2ccccc2)C[C@H]2O[C@]1(C)n1c3ccccc3c3c4c(c5c6ccccc6n2c5c31)C(=O)NC4 [Midostaurin] + CN(C)S(=O)(=O)c1ccc2c(c1)/C(=C/c1cc3c([nH]1)CCCC3)C(=O)N2 [SU6656] (first compound 0.08 µM, partner dose 0.4 µM)",53,378,67.6,182,69.5,71.1,82.8,80.6,574,224
"C[C@]1(c2nc3c(C(N)=O)cccc3[nH]2)CCCN1 [Veliparib] + O=C(O)c1ccc(-c2c[nH]c3ncc(-c4ccccc4)cc23)cc1C1CCCC1 [GSK650394] (first compound 1.4 µM, partner dose 0.16 µM)",58.9,101,51.8,57,66.8,111,88.2,148,71.1,164
"CC(=O)c1c(C)c2cnc(Nc3ccc(N4CCNCC4)cn3)nc2n(C2CCCC2)c1=O [palbociclib] + NC(=O)Nc1cc(-c2cccc(F)c2)sc1C(=O)N[C@H]1CCCNC1 [AZD7762] (first compound 0.04 µM, partner dose 0.02 µM)",55.2,203,235,99.3,149,38.9,254,227,170,154
"Nc1cccc2c1CN(C1CCC(=O)NC1=O)C2=O (stereo not given) [lenalidomide] + O=C(CCCCCCC(=O)Nc1ccccc1)NO [vorinostat] (first compound 1 µM, partner dose 0.08 µM)",103,58.5,96.1,119,118,114,64.7,39,174,136
"O=C(CCCCCCC(=O)Nc1ccccc1)NO [vorinostat] + NCC(=O)Nc1ccc(-n2nc(C(F)(F)F)cc2-c2ccc3c(ccc4ccccc43)c2)cc1 [OSU03012] (first compound 0.08 µM, partner dose 1 µM)",71.6,298,91.8,83.1,64.4,326,121,75.8,159,189
"Cc1ccc(NC(=O)c2cccc(N(C)C)c2)cc1NC(=O)c1ccc(O)cc1 + OCCn1cc(-c2cnc3nnn(Cc4ccc5ncccc5c4)c3n2)cn1 [PF04217903] (first compound 2 µM, partner dose 1 µM)",334,108,59.1,87,61.6,26.3,72.7,95.7,85,117

# In another format: entries from further up.
SMILES | cleaved PARP positive nuclei fraction (MZ2-MEL) [%] | cleaved PARP positive nuclei fraction (MeWo) [%] | cleaved PARP positive nuclei fraction (RPMI7951) [%] | cleaved PARP positive nuclei fraction (RVH-421) [%] | cleaved PARP positive nuclei fraction (SkMel28) [%] | cleaved PARP positive nuclei fraction (SkMel2) [%] | cleaved PARP positive nuclei fraction (SkMel30) [%] | cleaved PARP positive nuclei fraction (SkMel5) [%] | cleaved PARP positive nuclei fraction (UACC257) [%] | cleaved PARP positive nuclei fraction (UACC62) [%]
CC(=O)c1c(C)c2cnc(Nc3ccc(N4CCNCC4)cn3)nc2n(C2CCCC2)c1=O [palbociclib] + NC(=O)Nc1cc(-c2cccc(F)c2)sc1C(=O)N[C@H]1CCCNC1 [AZD7762] (first compound 0.04 µM, partner dose 0.02 µM) | 55.2 | 203 | 235 | 99.3 | 149 | 38.9 | 254 | 227 | 170 | 154
Nc1cccc2c1CN(C1CCC(=O)NC1=O)C2=O (stereo not given) [lenalidomide] + O=C(CCCCCCC(=O)Nc1ccccc1)NO [vorinostat] (first compound 1 µM, partner dose 0.08 µM) | 103 | 58.5 | 96.1 | 119 | 118 | 114 | 64.7 | 39 | 174 | 136

# — the supplement of paper PMC4604168 (melanoma cell lines)
